According to the supplement of paper PMC6078165:

Tested on: BT20
Assay: relative JC-1 red fluorescence (viability) vs pre-drug, coculture with fibroblast (fraction); higher = more viable cancer cells
Experimental: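 JC-1 labelled TNBC cells cocultured 1:1 (1,500 cells each) with CellTrace Violet stained primary or stromal fibroblasts in 384-well plates in FluoroBrite medium, treated with one of 42 anticancer drugs at 0.1, 1, 10 or 100 uM. JC-1 red fluorescence (mitochondrial integrity in cancer cells only) was read by plate reader every 8 h for 72 h. Values are normalised to each well's pre-drug value. The stock of one drug was tenfold lower, so its dose labels may be too high.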

CO[C@@]12[C@H](COC(N)=O)C3=C(C(=O)C(C)=C(N)C3=O)N1C[C@@H]1N[C@@H]12 [Mitomycin C]
relative JC-1 red fluorescence
Details | 8 h | 16 h | 24 h | 32 h | 40 h | 48 h | 56 h | 64 h | 72 h
0.1 µM, coculture fibroblast: C12385 | 0.927 | 0.861 | 0.804 | 0.749 | 0.705 | 0.668 | 0.648 | 0.62 | 0.592
0.1 µM, coculture fibroblast: H6013 | 0.976 | 0.895 | 0.831 | 0.795 | 0.738 | 0.711 | 0.688 | 0.644 | 0.614
0.1 µM, coculture fibroblast: H6019 | 0.87 | 0.809 | 0.784 | 0.727 | 0.67 | 0.645 | 0.608 | 0.577 | 0.556
0.1 µM, coculture fibroblast: H6076 | 0.895 | 0.861 | 0.773 | 0.737 | 0.686 | 0.65 | 0.617 | 0.596 | 0.565
0.1 µM, coculture fibroblast: H6231 | 0.901 | 0.9238 | 0.79354 | 0.7302 | 0.6809 | 0.6201 | 0.573 | 0.541 | 0.516
0.1 µM, coculture fibroblast: HADF | 0.77 | 0.933 | 0.857 | 0.837 | 0.807 | 0.762 | 0.734 | 0.71 | 0.666
0.1 µM, coculture fibroblast: HCFa | 0.949 | 0.856 | 0.788 | 0.728 | 0.67 | 0.636 | 0.603 | 0.576 | 0.537
0.1 µM, coculture fibroblast: HCPF | 0.855 | 0.879 | 0.807 | 0.7599 | 0.714 | 0.683 | 0.646 | 0.625 | 0.586
0.1 µM, coculture fibroblast: HHSteC | 0.959 | 0.862 | 0.831 | 0.758 | 0.712 | 0.679 | 0.656 | 0.634 | 0.601
0.1 µM, coculture fibroblast: HMF | 0.9877 | 0.905 | 0.823 | 0.778 | 0.739 | 0.695 | 0.66 | 0.624 | 0.589
0.1 µM, coculture fibroblast: HPFa | 0.959 | 0.893 | 0.841 | 0.841 | 0.826 | 0.791 | 0.781 | 0.758 | 0.707
0.1 µM, coculture fibroblast: HUF | 0.905 | 0.805 | 0.748 | 0.657 | 0.607 | 0.572 | 0.553 | 0.527 | 0.504
0.1 µM, coculture fibroblast: Hs5 | 0.773 | 0.89866 | 0.849 | 0.798 | 0.763 | 0.733 | 0.716 | 0.688 | 0.672
0.1 µM, coculture fibroblast: Hs27A | 0.897 | 0.892 | 0.89 | 0.88 | 0.834 | 0.803 | 0.793 | 0.766 | 0.727
0.1 µM, coculture fibroblast: Hs343T | 0.936 | 0.907 | 0.781 | 0.71 | 0.652 | 0.619 | 0.563 | 0.536 | 0.494
0.1 µM, coculture fibroblast: WS1 | 0.8628 | 0.779 | 0.734 | 0.667 | 0.611 | 0.58 | 0.55 | 0.514 | 0.503
1 µM, coculture fibroblast: C12385 | 0.862 | 0.801 | 0.772 | 0.699 | 0.653 | 0.6206 | 0.5948 | 0.566 | 0.5376
1 µM, coculture fibroblast: H6013 | 0.9293 | 0.8985 | 0.8658 | 0.8239 | 0.774 | 0.7568 | 0.7369 | 0.702 | 0.684
1 µM, coculture fibroblast: H6019 | 0.8206 | 0.75 | 0.7226 | 0.6416 | 0.57574 | 0.549 | 0.508 | 0.479 | 0.455
1 µM, coculture fibroblast: H6076 | 0.956 | 0.864 | 0.775 | 0.726 | 0.691 | 0.644 | 0.604 | 0.588 | 0.549
1 µM, coculture fibroblast: H6231 | 0.9143 | 0.834 | 0.856 | 0.824 | 0.766 | 0.705 | 0.658 | 0.602 | 0.562
1 µM, coculture fibroblast: HADF | 0.935 | 0.916 | 0.871 | 0.831 | 0.805 | 0.773 | 0.737 | 0.715 | 0.677
1 µM, coculture fibroblast: HCFa | 0.8772 | 0.8151 | 0.7671 | 0.699 | 0.662 | 0.632 | 0.597 | 0.566 | 0.5304
1 µM, coculture fibroblast: HCPF | 0.951 | 0.86 | 0.762 | 0.708 | 0.653 | 0.611 | 0.577 | 0.562 | 0.532
1 µM, coculture fibroblast: HHSteC | 0.878 | 0.844 | 0.844 | 0.771 | 0.728 | 0.703 | 0.684 | 0.661 | 0.639
1 µM, coculture fibroblast: HMF | 0.957 | 0.823 | 0.718 | 0.651 | 0.602 | 0.545 | 0.504 | 0.474 | 0.444
1 µM, coculture fibroblast: HPFa | 0.957 | 0.888 | 0.9 | 0.826 | 0.811 | 0.769 | 0.748 | 0.718 | 0.677
1 µM, coculture fibroblast: HUF | 0.884 | 0.8027 | 0.775 | 0.696 | 0.641 | 0.604 | 0.586 | 0.563 | 0.547
1 µM, coculture fibroblast: Hs5 | 0.979 | 0.87 | 0.794 | 0.743 | 0.7023 | 0.659 | 0.625 | 0.599 | 0.577
1 µM, coculture fibroblast: Hs27A | 0.8285 | 0.983 | 0.922 | 0.90616 | 0.874 | 0.857 | 0.852 | 0.834 | 0.793
1 µM, coculture fibroblast: Hs343T | 0.951 | 0.833 | 0.734 | 0.656 | 0.604 | 0.559 | 0.528 | 0.5 | 0.457
1 µM, coculture fibroblast: WS1 | 0.868 | 0.775 | 0.733 | 0.648 | 0.5795 | 0.542 | 0.502 | 0.464 | 0.435
10 µM, coculture fibroblast: C12385 | 0.9002 | 0.831 | 0.73 | 0.648 | 0.568 | 0.536 | 0.508 | 0.468 | 0.432
10 µM, coculture fibroblast: H6013 | 0.887 | 0.876 | 0.824 | 0.728 | 0.605 | 0.548 | 0.527 | 0.504 | 0.481
10 µM, coculture fibroblast: H6019 | 0.8482 | 0.754 | 0.681 | 0.57 | 0.471 | 0.406 | 0.358 | 0.323 | 0.322
10 µM, coculture fibroblast: H6076 | 0.908 | 0.856 | 0.719 | 0.655 | 0.552 | 0.489 | 0.437 | 0.413 | 0.389
10 µM, coculture fibroblast: H6231 | 0.9043 | 0.934 | 0.776 | 0.6783 | 0.587 | 0.502 | 0.453 | 0.415 | 0.396
10 µM, coculture fibroblast: HADF | 0.778 | 0.91 | 0.787 | 0.692 | 0.591 | 0.536 | 0.507 | 0.491 | 0.462
10 µM, coculture fibroblast: HCFa | 0.953 | 0.8857 | 0.852 | 0.78 | 0.716 | 0.666 | 0.645 | 0.645 | 0.629
10 µM, coculture fibroblast: HCPF | 0.9193 | 0.9511 | 0.817 | 0.749 | 0.653 | 0.58 | 0.522 | 0.495 | 0.468
10 µM, coculture fibroblast: HHSteC | 0.929 | 0.846 | 0.812 | 0.709 | 0.629 | 0.565 | 0.532 | 0.508 | 0.4782
10 µM, coculture fibroblast: HMF | 0.862 | 0.865 | 0.7226 | 0.615 | 0.532 | 0.457 | 0.413 | 0.379 | 0.348
10 µM, coculture fibroblast: HPFa | 0.935 | 0.8286 | 0.82631 | 0.731 | 0.68 | 0.641 | 0.649 | 0.639 | 0.606
10 µM, coculture fibroblast: HUF | 0.894 | 0.7843 | 0.731 | 0.626 | 0.538 | 0.491 | 0.459 | 0.448 | 0.442
10 µM, coculture fibroblast: Hs5 | 0.815 | 0.913 | 0.7727 | 0.6828 | 0.596 | 0.556 | 0.5264 | 0.492 | 0.476
10 µM, coculture fibroblast: Hs27A | 0.812 | 0.824 | 0.806 | 0.848 | 0.926 | 0.874 | 0.873 | 0.889 | 0.884
10 µM, coculture fibroblast: Hs343T | 0.809 | 0.862 | 0.704 | 0.598 | 0.472 | 0.387 | 0.316 | 0.292 | 0.264
10 µM, coculture fibroblast: WS1 | 0.861 | 0.777 | 0.695 | 0.576 | 0.475 | 0.43 | 0.38 | 0.347 | 0.331
100 µM, coculture fibroblast: C12385 | 0.728 | 0.599 | 0.594 | 0.529 | 0.491 | 0.488 | 0.4876 | 0.4844 | 0.48
100 µM, coculture fibroblast: H6013 | 0.789 | 0.668 | 0.721 | 0.6386 | 0.629 | 0.626 | 0.65 | 0.637 | 0.63
100 µM, coculture fibroblast: H6019 | 0.714 | 0.596 | 0.634 | 0.605 | 0.587 | 0.585 | 0.57 | 0.561 | 0.555
100 µM, coculture fibroblast: H6076 | 0.883 | 0.687 | 0.601 | 0.58 | 0.575 | 0.562 | 0.566 | 0.565 | 0.547
100 µM, coculture fibroblast: H6231 | 0.844 | 0.674 | 0.5812 | 0.5514 | 0.5427 | 0.5173 | 0.524 | 0.512 | 0.509
100 µM, coculture fibroblast: HADF | 0.791 | 0.666 | 0.724 | 0.632 | 0.643 | 0.624 | 0.639 | 0.641 | 0.617
100 µM, coculture fibroblast: HCFa | 0.765 | 0.624 | 0.66 | 0.59 | 0.607 | 0.607 | 0.63 | 0.639 | 0.618
100 µM, coculture fibroblast: HCPF | 0.936 | 0.708 | 0.606 | 0.574 | 0.557 | 0.535 | 0.531 | 0.521 | 0.512
100 µM, coculture fibroblast: HHSteC | 0.713 | 0.622 | 0.655 | 0.565 | 0.553 | 0.532 | 0.543 | 0.534 | 0.52
100 µM, coculture fibroblast: HMF | 0.902 | 0.6177 | 0.436 | 0.388 | 0.382 | 0.37 | 0.384 | 0.388 | 0.39
100 µM, coculture fibroblast: HPFa | 0.749 | 0.7051 | 0.7377 | 0.6575 | 0.663 | 0.642 | 0.652 | 0.654 | 0.646
100 µM, coculture fibroblast: HUF | 0.737 | 0.645 | 0.673 | 0.616 | 0.596 | 0.586 | 0.605 | 0.615 | 0.615
100 µM, coculture fibroblast: Hs5 | 0.889 | 0.694 | 0.607 | 0.579 | 0.57 | 0.554 | 0.554 | 0.547 | 0.539
100 µM, coculture fibroblast: Hs27A | 0.863 | 0.75 | 0.838 | 0.781 | 0.789 | 0.811 | 0.841 | 0.745 | 0.81
100 µM, coculture fibroblast: Hs343T | 0.879 | 0.602 | 0.465 | 0.423 | 0.42 | 0.412 | 0.42 | 0.416 | 0.411
100 µM, coculture fibroblast: WS1 | 0.697 | 0.52 | 0.504 | 0.445 | 0.413 | 0.403 | 0.395 | 0.392 | 0.384

The reference is the same well before dosing, and untreated signal decays as well.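 Fibroblast labels denote human fibroblasts, mainly primary ones from uterus (C12385, HUF), lung (H6013), bone (Hs27A), adrenal (HADF) and skin (WS1), plus mammary HMF and breast cancer-associated Hs343T. Cancer cells are basal-like or mesenchymal-like triple-negative breast cancer lines. A hit is a response shift exceeding 3x replicate standard deviation. The tissue of the other fibroblasts is not given here.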
